The other results are listed elsewhere or left out. The data scatter; read single values as rough.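 Many melting curves are irregular; where none melted, Tm was taken as 64 °C.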
compound: CCc1cnccc1C(=O)Nc1cc2c(cc1F)NC(=O)CC2; test: melting temperature shift (DMSO Tm minus MBE1-treated Tm) in cellular thermal proteome profiling; higher = less thermal stabilization by MBE1 (negative = stabilized by MBE1); details: A375; MBE1 concentration: 100 nM

Sequences of proteins named here, by UniProt entry; tags and fusion partners are left off. A change or cut given only in a name is not applied to a line headed by its entry.
UniProt O00139: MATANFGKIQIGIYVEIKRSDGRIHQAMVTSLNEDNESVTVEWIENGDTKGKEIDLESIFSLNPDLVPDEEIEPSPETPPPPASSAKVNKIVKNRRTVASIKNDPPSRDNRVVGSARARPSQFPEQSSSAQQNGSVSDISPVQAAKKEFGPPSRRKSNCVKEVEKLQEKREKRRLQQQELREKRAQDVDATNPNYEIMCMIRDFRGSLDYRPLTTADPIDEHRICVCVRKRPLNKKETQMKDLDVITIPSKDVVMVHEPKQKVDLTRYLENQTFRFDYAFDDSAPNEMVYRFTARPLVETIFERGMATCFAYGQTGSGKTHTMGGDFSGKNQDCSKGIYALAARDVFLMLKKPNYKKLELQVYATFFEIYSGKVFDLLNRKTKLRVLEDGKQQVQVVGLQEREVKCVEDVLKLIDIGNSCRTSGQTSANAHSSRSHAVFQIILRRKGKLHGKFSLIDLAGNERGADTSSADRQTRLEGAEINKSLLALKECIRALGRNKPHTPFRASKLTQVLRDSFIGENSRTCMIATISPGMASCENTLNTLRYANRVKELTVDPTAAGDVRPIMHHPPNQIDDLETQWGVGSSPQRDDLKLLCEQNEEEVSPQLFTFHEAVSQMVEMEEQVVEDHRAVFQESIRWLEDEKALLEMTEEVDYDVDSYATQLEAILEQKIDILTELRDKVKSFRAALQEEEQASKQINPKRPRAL
UniProt A9UHW6: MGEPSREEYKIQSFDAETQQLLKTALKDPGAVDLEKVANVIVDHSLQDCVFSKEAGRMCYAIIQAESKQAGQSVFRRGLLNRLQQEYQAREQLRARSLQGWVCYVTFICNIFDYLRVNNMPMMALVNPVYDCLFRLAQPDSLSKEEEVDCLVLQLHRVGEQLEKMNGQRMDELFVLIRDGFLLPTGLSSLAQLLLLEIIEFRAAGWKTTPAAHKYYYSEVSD
UniProt O14733: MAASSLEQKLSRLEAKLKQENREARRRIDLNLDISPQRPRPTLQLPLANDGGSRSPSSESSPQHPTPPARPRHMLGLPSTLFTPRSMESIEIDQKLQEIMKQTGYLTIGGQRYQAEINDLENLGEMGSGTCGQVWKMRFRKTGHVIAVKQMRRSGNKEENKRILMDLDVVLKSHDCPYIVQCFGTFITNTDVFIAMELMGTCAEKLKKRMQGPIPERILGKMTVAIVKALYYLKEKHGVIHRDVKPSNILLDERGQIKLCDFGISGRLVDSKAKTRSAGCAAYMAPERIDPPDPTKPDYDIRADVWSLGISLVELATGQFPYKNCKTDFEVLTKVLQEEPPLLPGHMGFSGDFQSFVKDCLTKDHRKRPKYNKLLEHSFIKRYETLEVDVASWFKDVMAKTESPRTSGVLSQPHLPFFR
UniProt O00124: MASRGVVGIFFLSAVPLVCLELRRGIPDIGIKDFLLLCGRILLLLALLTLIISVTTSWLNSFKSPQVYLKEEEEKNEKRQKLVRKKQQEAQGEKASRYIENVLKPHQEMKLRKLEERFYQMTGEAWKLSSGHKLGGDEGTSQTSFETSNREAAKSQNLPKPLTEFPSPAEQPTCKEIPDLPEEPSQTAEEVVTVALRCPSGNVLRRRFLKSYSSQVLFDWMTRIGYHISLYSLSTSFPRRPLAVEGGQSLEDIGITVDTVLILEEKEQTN
UniProt O14786, whole entry: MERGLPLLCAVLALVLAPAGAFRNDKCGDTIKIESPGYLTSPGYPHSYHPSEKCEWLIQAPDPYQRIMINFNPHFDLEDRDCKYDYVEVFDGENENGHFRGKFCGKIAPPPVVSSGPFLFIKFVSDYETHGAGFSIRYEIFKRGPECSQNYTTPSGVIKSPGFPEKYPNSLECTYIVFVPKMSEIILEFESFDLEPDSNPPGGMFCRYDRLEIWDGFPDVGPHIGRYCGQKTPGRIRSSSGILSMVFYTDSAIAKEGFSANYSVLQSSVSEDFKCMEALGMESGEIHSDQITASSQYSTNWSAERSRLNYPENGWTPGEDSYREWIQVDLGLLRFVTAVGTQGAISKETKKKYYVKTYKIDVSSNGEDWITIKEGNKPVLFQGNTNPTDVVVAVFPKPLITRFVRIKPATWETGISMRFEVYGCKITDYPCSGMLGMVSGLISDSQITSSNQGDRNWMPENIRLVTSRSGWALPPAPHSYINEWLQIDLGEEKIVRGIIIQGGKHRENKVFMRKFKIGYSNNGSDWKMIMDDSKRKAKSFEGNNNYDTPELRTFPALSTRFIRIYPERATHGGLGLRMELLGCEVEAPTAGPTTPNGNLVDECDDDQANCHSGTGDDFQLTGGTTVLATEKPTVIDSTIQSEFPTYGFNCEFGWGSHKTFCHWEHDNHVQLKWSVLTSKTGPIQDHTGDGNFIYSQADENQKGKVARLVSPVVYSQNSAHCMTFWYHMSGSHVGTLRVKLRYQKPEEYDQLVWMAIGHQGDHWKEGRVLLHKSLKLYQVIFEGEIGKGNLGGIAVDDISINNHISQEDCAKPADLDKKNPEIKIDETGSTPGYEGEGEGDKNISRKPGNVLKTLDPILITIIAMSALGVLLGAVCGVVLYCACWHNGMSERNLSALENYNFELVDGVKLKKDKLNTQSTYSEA
UniProt O14773: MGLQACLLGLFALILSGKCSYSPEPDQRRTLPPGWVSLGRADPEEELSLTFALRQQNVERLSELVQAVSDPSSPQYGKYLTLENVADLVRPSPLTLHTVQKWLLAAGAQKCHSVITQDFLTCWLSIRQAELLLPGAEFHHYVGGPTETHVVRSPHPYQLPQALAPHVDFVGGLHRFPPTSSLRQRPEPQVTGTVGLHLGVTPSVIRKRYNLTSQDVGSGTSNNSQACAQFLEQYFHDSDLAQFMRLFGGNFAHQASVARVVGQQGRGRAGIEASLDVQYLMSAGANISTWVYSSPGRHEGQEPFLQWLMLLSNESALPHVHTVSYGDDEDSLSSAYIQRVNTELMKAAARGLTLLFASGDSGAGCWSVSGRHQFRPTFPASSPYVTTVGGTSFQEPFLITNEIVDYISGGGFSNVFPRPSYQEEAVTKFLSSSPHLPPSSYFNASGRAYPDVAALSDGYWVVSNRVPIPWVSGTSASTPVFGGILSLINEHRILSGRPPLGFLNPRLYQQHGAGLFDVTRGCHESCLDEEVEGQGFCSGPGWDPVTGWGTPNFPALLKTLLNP
UniProt O14548: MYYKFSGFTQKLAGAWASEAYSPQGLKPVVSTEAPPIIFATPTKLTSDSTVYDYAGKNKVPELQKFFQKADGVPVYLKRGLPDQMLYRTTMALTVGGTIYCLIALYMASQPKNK
UniProt A5PLL7: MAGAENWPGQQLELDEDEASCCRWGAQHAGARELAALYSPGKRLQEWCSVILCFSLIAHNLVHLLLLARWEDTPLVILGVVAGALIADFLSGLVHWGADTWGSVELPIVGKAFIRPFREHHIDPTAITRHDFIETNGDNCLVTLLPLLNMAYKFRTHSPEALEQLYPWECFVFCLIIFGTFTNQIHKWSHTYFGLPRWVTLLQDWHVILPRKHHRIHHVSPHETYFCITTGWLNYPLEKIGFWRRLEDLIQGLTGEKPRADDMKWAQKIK
UniProt B7ZAP0: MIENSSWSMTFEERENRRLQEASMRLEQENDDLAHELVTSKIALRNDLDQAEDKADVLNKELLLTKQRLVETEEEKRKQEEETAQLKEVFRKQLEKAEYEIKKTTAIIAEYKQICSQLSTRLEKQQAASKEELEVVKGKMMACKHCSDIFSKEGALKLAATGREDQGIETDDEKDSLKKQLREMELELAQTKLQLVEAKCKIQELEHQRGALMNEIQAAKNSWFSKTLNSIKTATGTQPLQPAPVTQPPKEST
UniProt C9JLW8: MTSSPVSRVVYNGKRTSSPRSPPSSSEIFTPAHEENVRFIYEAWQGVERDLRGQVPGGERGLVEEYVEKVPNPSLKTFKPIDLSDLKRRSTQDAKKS
UniProt O00571: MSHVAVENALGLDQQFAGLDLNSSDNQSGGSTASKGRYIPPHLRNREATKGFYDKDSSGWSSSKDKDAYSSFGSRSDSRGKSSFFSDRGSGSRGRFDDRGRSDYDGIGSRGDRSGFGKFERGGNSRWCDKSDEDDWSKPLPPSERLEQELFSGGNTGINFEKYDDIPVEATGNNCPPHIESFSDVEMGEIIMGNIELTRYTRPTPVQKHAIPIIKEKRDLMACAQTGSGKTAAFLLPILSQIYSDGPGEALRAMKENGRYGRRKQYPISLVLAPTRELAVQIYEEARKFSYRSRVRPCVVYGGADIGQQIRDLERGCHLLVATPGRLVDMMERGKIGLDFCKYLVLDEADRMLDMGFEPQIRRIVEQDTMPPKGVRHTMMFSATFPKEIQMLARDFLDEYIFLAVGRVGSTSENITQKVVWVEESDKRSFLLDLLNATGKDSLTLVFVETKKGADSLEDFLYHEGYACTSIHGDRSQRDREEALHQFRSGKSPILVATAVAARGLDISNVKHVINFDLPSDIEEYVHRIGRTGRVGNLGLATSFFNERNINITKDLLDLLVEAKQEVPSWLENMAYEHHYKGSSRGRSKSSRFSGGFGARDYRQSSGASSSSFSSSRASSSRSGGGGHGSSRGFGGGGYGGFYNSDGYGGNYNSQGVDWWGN
UniProt O14957: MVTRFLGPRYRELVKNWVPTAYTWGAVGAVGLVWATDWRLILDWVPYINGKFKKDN
UniProt O15382: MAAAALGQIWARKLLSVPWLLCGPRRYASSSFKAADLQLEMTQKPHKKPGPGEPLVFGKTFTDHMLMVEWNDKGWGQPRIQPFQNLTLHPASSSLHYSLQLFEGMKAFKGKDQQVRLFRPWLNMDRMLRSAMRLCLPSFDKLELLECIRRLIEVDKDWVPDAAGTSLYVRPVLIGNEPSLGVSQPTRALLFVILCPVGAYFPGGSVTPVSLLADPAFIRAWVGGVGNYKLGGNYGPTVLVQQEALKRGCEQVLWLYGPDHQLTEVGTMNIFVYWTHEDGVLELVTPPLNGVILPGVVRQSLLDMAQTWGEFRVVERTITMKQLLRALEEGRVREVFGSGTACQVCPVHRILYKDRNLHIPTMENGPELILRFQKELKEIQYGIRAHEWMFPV
UniProt O00743: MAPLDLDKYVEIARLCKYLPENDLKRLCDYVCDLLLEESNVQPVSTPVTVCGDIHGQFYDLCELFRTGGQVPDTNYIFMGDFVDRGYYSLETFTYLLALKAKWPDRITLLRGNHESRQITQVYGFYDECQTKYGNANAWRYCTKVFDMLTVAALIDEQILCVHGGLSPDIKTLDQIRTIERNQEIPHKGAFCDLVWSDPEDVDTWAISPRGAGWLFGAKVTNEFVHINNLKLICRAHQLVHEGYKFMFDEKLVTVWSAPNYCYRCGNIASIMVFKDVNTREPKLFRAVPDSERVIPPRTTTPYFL
UniProt O14966: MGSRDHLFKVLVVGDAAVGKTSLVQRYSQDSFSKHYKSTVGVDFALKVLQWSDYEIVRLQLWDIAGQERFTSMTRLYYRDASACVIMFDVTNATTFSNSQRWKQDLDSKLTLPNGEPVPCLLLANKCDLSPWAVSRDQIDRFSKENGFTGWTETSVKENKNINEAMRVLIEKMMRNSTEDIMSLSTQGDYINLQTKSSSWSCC
UniProt O14618: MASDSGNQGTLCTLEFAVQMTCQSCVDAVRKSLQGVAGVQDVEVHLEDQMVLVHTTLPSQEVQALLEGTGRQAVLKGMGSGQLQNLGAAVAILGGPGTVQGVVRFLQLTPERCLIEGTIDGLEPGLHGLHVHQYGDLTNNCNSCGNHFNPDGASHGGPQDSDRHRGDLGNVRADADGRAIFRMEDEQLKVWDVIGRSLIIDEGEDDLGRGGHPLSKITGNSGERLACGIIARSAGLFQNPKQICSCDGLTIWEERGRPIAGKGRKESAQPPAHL

Target	melting temperature shift [°C]
KIF2A (UniProt O00139)	0.165
PAPSS1 (UniProt O43252)	-0.295
ACOT8 (UniProt O14734)	-0.0733
UniProt A6H8Y1	0.568
MIF4GD (UniProt A9UHW6)	-1.13
PDHX (UniProt O00330)	-0.988
UniProt O14733	2.43
GATSL2 (UniProt A6NHX0)	-2.47
UniProt O00507	0.134
ZSWIM8 (UniProt A7E2V4)	-1.75
UBXN8 (UniProt O00124)	0.631
UniProt O15111	-0.714
UniProt O14786	-1.57
UniProt O43347	-2.62
TPP1 (UniProt O14773)	-0.838
UniProt A6NDB9	-0.567
DFFA (UniProt O00273)	-1.65
PHGDH (UniProt O43175)	-0.623
COX7A2L (UniProt O14548)	-3.78

Target	melting temperature shift [°C]
TMEM189 (UniProt A5PLL7)	-1.74
NDC80 (UniProt O14777)	-0.474
ARHGEF10 (UniProt O15013)	-0.687
UniProt O14920	-0.494
STXBP3 (UniProt O00186)	-0.48
UniProt B7ZAP0	-0.837
UniProt O14715	-0.66
UniProt C9JLW8	1.91
ARPC3 (UniProt O15145)	-0.704
UBFD1 (UniProt O14562)	-0.454
DDX3X (UniProt O00571)	-0.34
UniProt O14957	-0.318
BCAT2 (UniProt O15382)	-2.17
PPP6C (UniProt O00743)	-0.557
RAB29 (UniProt O14966)	-0.0469
CCS (UniProt O14618)	-1.01
UniProt O14910	-0.322
UniProt A8MVW0	0.501

same assay, conditions: A375; MBE1 concentration: 1 uM

Target	melting temperature shift [°C]
KIF2A (UniProt O00139)	0.208
PAPSS1 (UniProt O43252)	0.449
ACOT8 (UniProt O14734)	0.476
UniProt A6H8Y1	0.813
MIF4GD (UniProt A9UHW6)	0.165
PDHX (UniProt O00330)	0.598
UniProt O14733	1.2
GATSL2 (UniProt A6NHX0)	-0.775
UniProt O00507	-0.244
ZSWIM8 (UniProt A7E2V4)	0.0897
UBXN8 (UniProt O00124)	0.442
UniProt O15111	-0.353
UniProt O14786	0.183
UniProt O43347	-0.336
TPP1 (UniProt O14773)	0.644
UniProt A6NDB9	-3.98
DFFA (UniProt O00273)	-0.209
PHGDH (UniProt O43175)	0.0672
COX7A2L (UniProt O14548)	0.287

Target	melting temperature shift [°C]
TMEM189 (UniProt A5PLL7)	-1.17
NDC80 (UniProt O14777)	-0.0128
ARHGEF10 (UniProt O15013)	-0.997
UniProt O14920	-0.899
STXBP3 (UniProt O00186)	-0.833
UniProt B7ZAP0	-0.385
UniProt O14715	-0.461
UniProt C9JLW8	1.39
ARPC3 (UniProt O15145)	1.28
UBFD1 (UniProt O14562)	0.0183
DDX3X (UniProt O00571)	-0.0448
UniProt O14957	-4.2
BCAT2 (UniProt O15382)	0.065
PPP6C (UniProt O00743)	-1.04
RAB29 (UniProt O14966)	0.275
CCS (UniProt O14618)	2.21
UniProt O14910	0.641
UniProt A8MVW0	2.18
